Data reported in article doi:10.1101/2021.09.16.460581.
Results are given in words; binding and its absence hold for the method and conditions named. In cells and extracts the contact can be indirect. Some entries that bind do so weakly or less than the wild type.

Columns and labels:
[1] = biological target: T1, Mrc1-VC/VN (S. cerevisiae) (UniProt P25588); assay: split reporter
T1 sequence: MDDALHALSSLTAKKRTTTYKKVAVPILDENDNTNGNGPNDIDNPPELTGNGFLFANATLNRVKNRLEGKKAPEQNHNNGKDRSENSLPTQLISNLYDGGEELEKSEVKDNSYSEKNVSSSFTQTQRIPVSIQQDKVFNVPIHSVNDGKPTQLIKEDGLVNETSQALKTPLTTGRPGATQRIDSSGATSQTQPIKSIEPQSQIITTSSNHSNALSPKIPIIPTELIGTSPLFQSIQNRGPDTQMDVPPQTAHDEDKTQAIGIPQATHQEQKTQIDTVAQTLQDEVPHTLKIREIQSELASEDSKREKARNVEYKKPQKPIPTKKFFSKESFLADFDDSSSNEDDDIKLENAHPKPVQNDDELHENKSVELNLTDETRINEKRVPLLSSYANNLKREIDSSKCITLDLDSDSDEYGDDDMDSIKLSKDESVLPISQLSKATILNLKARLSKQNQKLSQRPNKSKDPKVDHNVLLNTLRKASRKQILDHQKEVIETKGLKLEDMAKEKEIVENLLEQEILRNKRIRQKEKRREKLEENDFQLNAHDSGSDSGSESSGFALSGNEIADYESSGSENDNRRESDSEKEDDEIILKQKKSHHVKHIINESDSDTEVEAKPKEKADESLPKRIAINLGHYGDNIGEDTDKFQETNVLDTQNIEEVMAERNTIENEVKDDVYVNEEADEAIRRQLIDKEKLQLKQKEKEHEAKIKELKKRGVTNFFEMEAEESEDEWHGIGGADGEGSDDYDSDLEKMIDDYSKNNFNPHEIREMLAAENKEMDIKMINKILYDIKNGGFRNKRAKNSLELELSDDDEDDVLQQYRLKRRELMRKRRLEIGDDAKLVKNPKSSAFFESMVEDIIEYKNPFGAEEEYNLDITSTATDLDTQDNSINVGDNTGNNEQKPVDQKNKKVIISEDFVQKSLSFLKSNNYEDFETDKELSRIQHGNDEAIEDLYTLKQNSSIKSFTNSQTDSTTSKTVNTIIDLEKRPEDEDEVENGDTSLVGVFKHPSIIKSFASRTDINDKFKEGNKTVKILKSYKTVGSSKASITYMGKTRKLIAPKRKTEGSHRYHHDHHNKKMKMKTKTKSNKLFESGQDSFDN

[2] = biological target: T2, Ulp2-VN/VC (S. cerevisiae) (UniProt P40537); assay: split reporter
T2 sequence: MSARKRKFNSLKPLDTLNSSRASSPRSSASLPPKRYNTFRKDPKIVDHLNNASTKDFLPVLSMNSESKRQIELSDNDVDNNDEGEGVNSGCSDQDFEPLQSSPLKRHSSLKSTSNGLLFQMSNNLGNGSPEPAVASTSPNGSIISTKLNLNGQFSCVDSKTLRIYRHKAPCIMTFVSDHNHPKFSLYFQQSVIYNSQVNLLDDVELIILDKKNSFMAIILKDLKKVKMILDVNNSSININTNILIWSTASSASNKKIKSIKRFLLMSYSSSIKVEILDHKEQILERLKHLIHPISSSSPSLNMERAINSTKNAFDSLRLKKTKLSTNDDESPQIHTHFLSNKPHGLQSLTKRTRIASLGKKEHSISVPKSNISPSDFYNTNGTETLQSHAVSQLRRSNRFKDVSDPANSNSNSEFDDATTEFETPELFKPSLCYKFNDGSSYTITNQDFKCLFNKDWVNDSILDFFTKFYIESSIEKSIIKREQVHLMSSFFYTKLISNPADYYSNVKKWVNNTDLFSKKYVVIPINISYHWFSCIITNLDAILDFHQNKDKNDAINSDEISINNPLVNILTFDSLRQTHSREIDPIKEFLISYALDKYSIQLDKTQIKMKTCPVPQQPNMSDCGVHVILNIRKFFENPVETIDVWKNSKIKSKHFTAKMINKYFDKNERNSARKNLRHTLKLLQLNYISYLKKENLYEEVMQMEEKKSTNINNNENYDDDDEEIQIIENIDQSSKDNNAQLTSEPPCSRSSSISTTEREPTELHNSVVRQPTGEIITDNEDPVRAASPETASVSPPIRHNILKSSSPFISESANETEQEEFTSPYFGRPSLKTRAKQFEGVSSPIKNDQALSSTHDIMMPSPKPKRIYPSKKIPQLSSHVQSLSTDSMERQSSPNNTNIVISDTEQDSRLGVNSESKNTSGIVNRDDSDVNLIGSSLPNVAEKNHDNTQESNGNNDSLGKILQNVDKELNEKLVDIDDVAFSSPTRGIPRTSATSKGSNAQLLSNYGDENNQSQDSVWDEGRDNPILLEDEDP

binding [1]: binds
binding [2]: binds
B1: Otu1-VN/VC (protein, UniProt P43558 1-301)
chain: MKLKVTGAGINQVVTLKQDATLNDLIEHINVDVKTMRFGYPPQRINLQGEDASLGQTQLDELGINSGEKITIESSDSNESFSLPPPQPKPKRVLKSTEMSIGGSGENVLSVHPVLDDNSCLFHAIAYGIFKQDSVRDLREMVSKEVLNNPVKFNDAILDKPNKDYAQWILKMESWGGAIEIGIISDALAVAIYVVDIDAVKIEKFNEDKFDNYILILFNGIHYDSLTMNEFKTVFNKNQPESDDVLTAALQLASNLKQTGYSFNTHKAQIKCNTCQMTFVGEREVARHAESTGHVDFGQNR
